Data reported in US20110097274A1, “Carbon-11 and fluorine-18 labeled radioligands for positron emission tomography (PET) imaging for the brain serotonin transporters” (priority 2002, published 2011).

Test system: SERT
Assay: Baboon PET imaging: brain uptake, kinetic analysis and SERT parameters
Format: in vivo
Settings: absolute test−retest difference / average; mean ± SD of two test/retest pairs
Procedure: PET imaging protocol: PET experiments (n=20) were performed at Columbia University. Two adult male baboons (baboon A and B) were studied twice with each of the 5 radioligands (4 experiments per radioligand). All experiments took place within a 9-month period. Baboons A and B were 31 kg and 21 kg in weight at the beginning of the experimental period and 28 and 22 kg at the end, respectively. Test and retest experiments with the same radioligand were obtained on different days, with an average interval of 117±53 days.
Experiments were performed according to protocols approved by the Columbia-Presbyterian Medical Center Institutional Animal Care and Use Committee. Fasted animals were immobilized with ketamine (10 mg/kg i.m.), and anesthetized with 1.8% isoflurane via an endotracheal tube. Vital signs were monitored every 10 minutes and the temperature was kept constant at 37° C. with heated water blankets. An i.v. perfusion line was used for hydration and injection of radioligands and nonradioactive drugs. A catheter was inserted in a femoral artery for arterial blood sampling. Head was positioned at the center of the field of view as defined by imbedded laser lines. PET imaging was performed with the ECAT EXACT HR+PET scanner (Siemens/CTI, Knoxville, Tenn.). In 3D mode, this camera provides an in-plane resolution of 4.3 mm, 4.5 mm, 5.4 mm and 8.0 mm full width at half maximum (FWHM) at a distance of 0, 1, 10 and 20 cm from the center of the field of view, respectively (Brix et al., 1997). A 15 minute transmission scan was obtained prior to radioligand injection for attenuation correction. Activity was injected i.v. over 30 seconds. […] Emission data was collected in the 3D mode for 91 minutes as 21 successive frames of increasing duration (6*10 seconds, 2*1 minutes, 4*2 minutes, 2*5 minutes, and 7*10 minutes).
Image analysis: A Magnetic Resonance Image (MRI) of each baboon's brain was obtained for the purpose of identifying the regions of interest (ROI) (T1-weighted axial MRI sequence, acquired parallel to the anterior-posterior commissure, TR 34 msec, TE 5 msec, flip angle of 45 degrees, slice thickness is 1.5 mm, zero gap, matrix 1.5 mm×1 mm×1 mm voxels). The following regions were drawn on the MR images: cerebellum, midbrain, thalamus, striatum, hippocampus, temporal cortex, cingulate cortex and occipital cortex.
PET emission data were attenuation-corrected using the transmission scan, and frames were reconstructed using a Shepp filter (cutoff 0.5 cycles/projection rays). Reconstructed image files were then processed using the image analysis software MEDx (Sensor Systems, Inc., Sterling, Va.). An image was created by summing all the frames, and this summed image was used to define the registration parameters with the MR image, using between-modality automated image registration (AIR) algorithm (Woods et al., 1993). Registration parameters were then applied to the individual frames for registration to the MR data set. Regional boundaries were transferred to the individual registered PET frames, and time-activity curves were measured and decay-corrected. Right and left regions were averaged. For a given animal, the same regions were used for all radioligands.
Brain uptake: Total brain uptake was expressed as percentage of the injected dose per gram of tissue (% ID g^−1) in a region encompassing the entire brain. Regional peak time was defined as the mid-time of the frame associated with the highest activity value. To estimate the degree of wash-out from the brain captured during the scan interval (91 minutes), the decrease in activity from the peak frame to the last frame was calculated and expressed in percentage of the peak activity.
Kinetic analysis: Regional total distribution volumes (VT, mL g^−1) were derived with kinetic analysis of the regional time-activity curves, using the arterial plasma concentrations as input function. […]

SMILES | Reproducibility of V3″ measurement (test/retest) Cingulate Cortex [%] | Reproducibility of V3″ measurement (test/retest) Hippocampus [%] | Reproducibility of V3″ measurement (test/retest) Midbrain [%] | Reproducibility of V3″ measurement (test/retest) Occipital Cortex [%] | Reproducibility of V3″ measurement (test/retest) Striatum [%] | Reproducibility of V3″ measurement (test/retest) Temporal Cortex [%] | Reproducibility of V3″ measurement (test/retest) Thalamus [%]
CN(C)Cc1ccccc1Sc1ccc(I)cc1N [[^11C]ADAM] | 28 ± 19 | 20 ± 3 | 28 ± 4 | 63 ± 10 | 15 ± 7 | 32 ± 25 | 21 ± 5
CN([11CH3])Cc1ccccc1Sc1ccc(CF)cc1N [[^11C]AFM, [^11C]2-[2-(Dimethylaminomethyl)phenylthio]-5-fluoromethylphenylamine] | 14 ± 4 | 9 ± 5 | 10 ± 11 | 9 ± 5 | 5 ± 0 | 11 ± 10 | 3 ± 3
CN(C)Cc1ccccc1Sc1ccc(Br)cc1N [[^11C]DAPA] | 9 ± 1 | 8 ± 6 | 7 ± 6 | 7 ± 6 | 7 ± 9 | 10 ± 7 | 12 ± 8
CN(C)Cc1ccccc1Sc1ccc(C#N)cc1N [[^11C]DASB] | 14 ± 15 | 22 ± 12 | 15 ± 4 | 49 ± 43 | 13 ± 12 | 10 ± 14 | 15 ± 1
[11CH3]Sc1ccc([C@H]2CN3CCC[C@H]3c3ccccc32)cc1 [[^11C]McN 5652] | 10 ± 13 | 28 ± 8 | 31 ± 11 | 35 ± 1 | 30 ± 28 | 25 ± 19 | 25 ± 15

Same assay, conditions: average of all regions

SMILES | Reproducibility of V3″ measurement (test/retest) Average by tracer [%]
CN(C)Cc1ccccc1Sc1ccc(I)cc1N [[^11C]ADAM] | 30 ± 16
CN([11CH3])Cc1ccccc1Sc1ccc(CF)cc1N [[^11C]AFM, [^11C]2-[2-(Dimethylaminomethyl)phenylthio]-5-fluoromethylphenylamine] | 9 ± 4
CN(C)Cc1ccccc1Sc1ccc(Br)cc1N [[^11C]DAPA] | 9 ± 2
CN(C)Cc1ccccc1Sc1ccc(C#N)cc1N [[^11C]DASB] | 20 ± 13
[11CH3]Sc1ccc([C@H]2CN3CCC[C@H]3c3ccccc32)cc1 [[^11C]McN 5652] | 26 ± 8

Same assay, conditions: baboons, from analysis of four experiments

SMILES | Minimal scanning time to reach time-independent measurement for VT, Cerebellum [min] | Minimal scanning time to reach time-independent measurement for VT, Cingulate Cortex [min] | Minimal scanning time to reach time-independent measurement for VT, Hippocampus [min] | Minimal scanning time to reach time-independent measurement for VT, Midbrain [min] | Minimal scanning time to reach time-independent measurement for VT, Occipital Cortex [min] | Minimal scanning time to reach time-independent measurement for VT, Striatum [min] | Minimal scanning time to reach time-independent measurement for VT, Temporal Cortex [min] | Minimal scanning time to reach time-independent measurement for VT, Thalamus [min]
CN(C)Cc1ccccc1Sc1ccc(I)cc1N [[^11C]ADAM] | 40 | 30 | 50 | 70 | 40 | 40 | 30 | 50
CN([11CH3])Cc1ccccc1Sc1ccc(CF)cc1N [[^11C]AFM, [^11C]2-[2-(Dimethylaminomethyl)phenylthio]-5-fluoromethylphenylamine] | 30 | 50 | 80 | 70 | 60 | 70 | 70 | 70
CN(C)Cc1ccccc1Sc1ccc(Br)cc1N [[^11C]DAPA] | 60 | 60 | 80 | 80 | 60 | 70 | 60 | 70
CN(C)Cc1ccccc1Sc1ccc(C#N)cc1N [[^11C]DASB] | 30 | 30 | 30 | 60 | 40 | 30 | 30 | 40
[11CH3]Sc1ccc([C@H]2CN3CCC[C@H]3c3ccccc32)cc1 [[^11C]McN 5652] | 60 | 60 | 70 | 70 | 60 | 60 | 70 | 60

Same assay, conditions: baboons, mean of all regions

SMILES | Minimal scanning time to reach time-independent measurement for VT, Average by tracer
CN(C)Cc1ccccc1Sc1ccc(I)cc1N [[^11C]ADAM] | 44 ± 13 min
CN([11CH3])Cc1ccccc1Sc1ccc(CF)cc1N [[^11C]AFM, [^11C]2-[2-(Dimethylaminomethyl)phenylthio]-5-fluoromethylphenylamine] | 62 ± 16 min and 63 ± 16 min
CN(C)Cc1ccccc1Sc1ccc(Br)cc1N [[^11C]DAPA] | 68 ± 9 min
CN(C)Cc1ccccc1Sc1ccc(C#N)cc1N [[^11C]DASB] | 36 ± 11 min
[11CH3]Sc1ccc([C@H]2CN3CCC[C@H]3c3ccccc32)cc1 [[^11C]McN 5652] | 62 ± 5 min and 64 ± 5 min

“And” between values parts separate entries of the source, which are not always exact repeats. Equal values may be shown once.
